# PubChem BioAssay AID1259254, NCATS – 2017
# Assay: 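Gene knock-downs that lead to re-replication, shown by excess G2 DNA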 (primary screen)
# System: human HCT116 colorectal cancer cells
# Reagents: single siRNA against human genes
# Timing: 3 days
# Measured: 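Imaged Hoechst DNA stain sorts each cell into a cycle phase by DNA amount; per plate, G2 fraction set to 0% for non-targeting and 100% for GMNN siRNA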
# Direction: G2 robust z-score: higher = more G2 cells, more excess DNA replication
# Active means: 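Active siRNAs have a G2 robust z of 5 or more median absolute deviations over the median, which in these data means about 38% or higher of GMNN control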
# The deposit covers about 59,000 reagents; shown is an unselected part. Over the whole deposit, about 1,550 (2.6%) were called active. 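G2 share is only a proxy for re-replication; each gene was hit by three separate siRNAs, and active genes were retested.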 Reagents against one gene are numbered here. Not all columns of the deposit are shown. Reagent sequences are not shown. The record does not give: the amount of reagent.
gene,siRNA no.,G2 robust z-score,Call
ARL2,1,0.955,inactive
ARL2,2,-0.332,inactive
ARL2,3,5.68,active
ITGA9,1,0.738,inactive
ITGA9,2,1.37,inactive
ITGA9,3,-1.69,inactive
ADGRA2,1,2.25,inactive
ADGRA2,2,-1.01,inactive
ADGRA2,3,4.5,inactive
CCR2,1,0.0989,inactive
CCR2,2,0.737,inactive
CCR2,3,-0.788,inactive
CCR2,4,-0.561,inactive
CCR2,5,2.48,inactive
CCR2,6,3.33,inactive
CRK,1,4.51,inactive
CRK,2,0.578,inactive
CRK,3,0.526,inactive
ZNF280A,1,3.51,inactive
ZNF280A,2,1.67,inactive
ZNF280A,3,-0.501,inactive
NGEF,1,0.681,inactive
NGEF,2,2.07,inactive
NGEF,3,-0.891,inactive
CCL16,1,-1.2,inactive
CCL16,2,-0.45,inactive
CCL16,3,-0.215,inactive
SUSD4,1,-0.484,inactive
SUSD4,2,2.47,inactive
SUSD4,3,-0.0774,inactive
SPC24,1,0.607,inactive
SPC24,2,0.524,inactive
SPC24,3,-0.241,inactive
MAZ,1,-0.462,inactive
MAZ,2,-1.08,inactive
MAZ,3,-0.771,inactive
TCHP,1,-0.514,inactive
TCHP,2,-0.778,inactive
TCHP,3,0.787,inactive
AMN1,1,3.85,inactive
AMN1,2,-0.128,inactive
AMN1,3,-0.333,inactive
APOBEC1,1,0.138,inactive
APOBEC1,2,-0.851,inactive
APOBEC1,3,0.177,inactive
CNKSR3,1,-0.848,inactive
CNKSR3,2,-1.35,inactive
CNKSR3,3,-1.49,inactive
LCMT1,1,1.4,inactive
LCMT1,2,-1.17,inactive
LCMT1,3,-0.26,inactive
TMEM192,1,-1.37,inactive
TMEM192,2,-0.379,inactive
TMEM192,3,0.617,inactive
VSIG8,1,-0.193,inactive
VSIG8,2,-1.25,inactive
VSIG8,3,0.657,inactive
NCOA3,1,-0.624,inactive
NCOA3,2,-0.0946,inactive
NCOA3,3,0.335,inactive
GNMT,1,0.655,inactive
GNMT,2,-0.736,inactive
GNMT,3,4.72,inactive
TBX21,1,-0.631,inactive
TBX21,2,-0.451,inactive
TBX21,3,0.652,inactive
OR2T27,1,0.525,inactive
OR2T27,2,0.56,inactive
OR2T27,3,-1.11,inactive
FLVCR1,1,1.34,inactive
FLVCR1,2,1.05,inactive
FLVCR1,3,-1.51,inactive
CERNA2,1,0.306,inactive
CERNA2,2,0.663,inactive
CERNA2,3,-0.83,inactive
RBM23,1,-1.02,inactive
RBM23,2,-1.11,inactive
RBM23,3,2.13,inactive
HNRNPA1,1,0.811,inactive
HNRNPA1,2,-0.58,inactive
HNRNPA1,3,0.101,inactive
ICAM2,1,0.0234,inactive
ICAM2,2,0.824,inactive
ICAM2,3,-0.589,inactive
ZCCHC9,1,1.28,inactive
ZCCHC9,2,-0.316,inactive
ZCCHC9,3,-0.871,inactive
